The values below come from publication PMC4671574.

Sequences of proteins named here, by UniProt entry; tags and fusion partners are left off. A change or cut given only in a name is not applied to a line headed by its entry.
UniProt Q03532: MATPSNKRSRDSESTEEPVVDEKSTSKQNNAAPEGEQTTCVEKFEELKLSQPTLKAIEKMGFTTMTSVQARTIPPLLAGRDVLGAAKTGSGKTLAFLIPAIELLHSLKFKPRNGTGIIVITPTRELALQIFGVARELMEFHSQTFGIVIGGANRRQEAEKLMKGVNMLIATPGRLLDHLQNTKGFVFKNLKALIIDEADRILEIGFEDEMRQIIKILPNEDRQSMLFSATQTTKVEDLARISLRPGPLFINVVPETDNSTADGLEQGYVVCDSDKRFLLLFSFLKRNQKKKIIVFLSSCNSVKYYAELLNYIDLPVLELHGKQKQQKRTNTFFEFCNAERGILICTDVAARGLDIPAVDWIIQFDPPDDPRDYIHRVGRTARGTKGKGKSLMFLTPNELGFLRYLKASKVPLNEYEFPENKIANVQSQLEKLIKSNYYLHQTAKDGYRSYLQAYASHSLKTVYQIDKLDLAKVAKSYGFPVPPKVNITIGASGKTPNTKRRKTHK
UniProt P40007: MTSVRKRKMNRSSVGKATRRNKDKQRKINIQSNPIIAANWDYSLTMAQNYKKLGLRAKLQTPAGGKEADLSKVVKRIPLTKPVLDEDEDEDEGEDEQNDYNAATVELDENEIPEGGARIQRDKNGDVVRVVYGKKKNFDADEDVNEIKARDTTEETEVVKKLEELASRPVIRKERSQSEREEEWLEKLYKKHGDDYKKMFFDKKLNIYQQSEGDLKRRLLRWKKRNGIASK
UniProt P14126: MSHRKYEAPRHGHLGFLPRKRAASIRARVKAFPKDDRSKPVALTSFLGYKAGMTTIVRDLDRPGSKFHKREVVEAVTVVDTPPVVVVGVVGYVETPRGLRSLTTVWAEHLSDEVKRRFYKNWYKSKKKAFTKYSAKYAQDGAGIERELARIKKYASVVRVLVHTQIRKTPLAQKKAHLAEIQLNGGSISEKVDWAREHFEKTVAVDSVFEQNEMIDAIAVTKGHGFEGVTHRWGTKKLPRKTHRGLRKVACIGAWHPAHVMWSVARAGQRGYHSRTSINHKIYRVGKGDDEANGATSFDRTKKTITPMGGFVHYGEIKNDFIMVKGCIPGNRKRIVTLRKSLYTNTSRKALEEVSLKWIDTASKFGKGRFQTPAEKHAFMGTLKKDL
UniProt P05737: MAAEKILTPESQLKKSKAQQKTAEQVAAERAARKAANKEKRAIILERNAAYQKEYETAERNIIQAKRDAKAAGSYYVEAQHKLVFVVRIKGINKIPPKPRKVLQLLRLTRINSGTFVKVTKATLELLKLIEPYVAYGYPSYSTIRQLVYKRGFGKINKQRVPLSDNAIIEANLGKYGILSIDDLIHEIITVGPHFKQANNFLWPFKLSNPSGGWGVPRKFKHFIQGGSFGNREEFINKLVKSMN
UniProt P17076: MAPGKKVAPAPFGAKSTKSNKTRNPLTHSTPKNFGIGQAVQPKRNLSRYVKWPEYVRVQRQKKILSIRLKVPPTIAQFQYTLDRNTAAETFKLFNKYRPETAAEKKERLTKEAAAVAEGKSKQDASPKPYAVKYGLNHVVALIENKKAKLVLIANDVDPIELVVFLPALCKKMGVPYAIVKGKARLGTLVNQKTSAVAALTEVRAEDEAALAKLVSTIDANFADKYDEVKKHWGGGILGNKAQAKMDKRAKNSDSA
UniProt Q12690: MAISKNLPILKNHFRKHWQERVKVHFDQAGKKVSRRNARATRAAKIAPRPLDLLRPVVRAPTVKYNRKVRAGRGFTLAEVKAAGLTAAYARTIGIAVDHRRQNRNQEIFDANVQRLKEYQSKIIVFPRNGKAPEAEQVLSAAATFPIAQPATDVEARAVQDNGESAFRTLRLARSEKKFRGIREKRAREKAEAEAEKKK
UniProt P36105: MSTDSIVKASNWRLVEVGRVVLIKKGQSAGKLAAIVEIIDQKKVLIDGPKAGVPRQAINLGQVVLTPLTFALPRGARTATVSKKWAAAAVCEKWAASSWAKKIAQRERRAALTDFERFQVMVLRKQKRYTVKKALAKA
UniProt P05748: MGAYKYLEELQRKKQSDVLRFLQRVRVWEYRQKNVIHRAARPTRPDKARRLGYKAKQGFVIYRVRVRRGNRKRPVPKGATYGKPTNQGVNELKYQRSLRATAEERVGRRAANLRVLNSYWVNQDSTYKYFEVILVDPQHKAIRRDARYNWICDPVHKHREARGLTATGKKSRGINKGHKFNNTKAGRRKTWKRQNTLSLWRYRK
UniProt P05740: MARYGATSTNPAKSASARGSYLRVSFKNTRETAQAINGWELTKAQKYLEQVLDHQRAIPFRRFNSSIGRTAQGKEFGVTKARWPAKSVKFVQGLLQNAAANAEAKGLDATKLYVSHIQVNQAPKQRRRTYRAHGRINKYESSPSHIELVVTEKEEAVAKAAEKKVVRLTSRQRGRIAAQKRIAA
UniProt P0CX82: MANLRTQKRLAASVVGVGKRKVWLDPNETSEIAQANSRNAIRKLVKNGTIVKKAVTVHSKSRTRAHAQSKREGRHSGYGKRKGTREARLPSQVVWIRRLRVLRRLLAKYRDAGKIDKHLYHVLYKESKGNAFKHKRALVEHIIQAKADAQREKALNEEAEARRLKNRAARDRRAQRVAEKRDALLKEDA
UniProt P38061: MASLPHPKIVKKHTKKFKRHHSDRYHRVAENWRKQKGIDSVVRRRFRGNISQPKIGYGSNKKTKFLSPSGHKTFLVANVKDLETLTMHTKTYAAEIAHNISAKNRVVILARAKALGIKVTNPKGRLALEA
UniProt P05744: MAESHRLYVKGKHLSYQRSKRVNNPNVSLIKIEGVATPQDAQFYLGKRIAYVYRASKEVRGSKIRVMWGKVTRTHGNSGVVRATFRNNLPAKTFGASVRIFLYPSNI
UniProt P05745: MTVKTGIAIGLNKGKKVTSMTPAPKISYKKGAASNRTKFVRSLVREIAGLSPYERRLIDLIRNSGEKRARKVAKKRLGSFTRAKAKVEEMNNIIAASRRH
UniProt P04650: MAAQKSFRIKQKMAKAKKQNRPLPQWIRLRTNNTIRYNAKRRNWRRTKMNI

This experiment has as its target T1, Noc2-TAP (S. cerevisiae) (UniProt P39744).
T1 sequence: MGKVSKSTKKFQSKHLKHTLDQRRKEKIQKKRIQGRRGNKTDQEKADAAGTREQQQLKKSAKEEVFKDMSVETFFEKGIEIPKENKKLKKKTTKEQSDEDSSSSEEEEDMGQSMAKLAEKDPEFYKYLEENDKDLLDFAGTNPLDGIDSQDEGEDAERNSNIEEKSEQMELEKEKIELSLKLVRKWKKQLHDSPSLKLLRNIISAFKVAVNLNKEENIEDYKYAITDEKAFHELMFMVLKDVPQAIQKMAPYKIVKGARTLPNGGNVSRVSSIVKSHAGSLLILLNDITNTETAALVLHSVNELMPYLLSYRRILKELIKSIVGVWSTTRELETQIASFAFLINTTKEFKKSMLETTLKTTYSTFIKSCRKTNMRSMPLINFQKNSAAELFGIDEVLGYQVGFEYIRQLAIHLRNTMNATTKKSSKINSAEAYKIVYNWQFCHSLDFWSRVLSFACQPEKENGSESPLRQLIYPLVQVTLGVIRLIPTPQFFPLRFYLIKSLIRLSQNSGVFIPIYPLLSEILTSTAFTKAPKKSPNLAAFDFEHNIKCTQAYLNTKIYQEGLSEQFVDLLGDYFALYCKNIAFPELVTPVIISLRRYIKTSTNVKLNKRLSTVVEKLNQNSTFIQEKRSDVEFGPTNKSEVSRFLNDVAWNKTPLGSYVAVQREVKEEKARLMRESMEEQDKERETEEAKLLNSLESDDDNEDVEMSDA
The experiment is described as follows: affinity purification with mass spectrometry; Noc2-TAP and associated pre-ribosomal particles purified on magnetic beads coated with rabbit IgG from total cellular extracts of yeast (wild type and GAL1/10 r-protein expression mutants after 4 h in glucose medium); eluted proteins digested with trypsin, peptides labelled with iTRAQ and identified by mass spectrometry; levels normalised to Noc2-TAP.

No constants are given. Whether binding was seen depends on the method and setting. Binding seen in cells or lysates may run through a third protein. Here binding means that the protein was enriched with, or labelled near, the bait; the list need not be complete.

For Has1 (from UniProt Q03532 1-505), the binding result was “binds”. With Nop16 (from UniProt P40007 1-231) the entry was “binds”; with rpL3/uL3 (from UniProt P14126 1-387), “binds”; with “rpL6/eL6 (S. cerevisiae (endogenous in yeast))”, “binds”. With rpL7/uL30 (from UniProt P05737) the entry was “binds”; with rpL8/eL8 (from UniProt P17076), “binds”; with rpL13/eL13 (from UniProt Q12690), “binds”. Consider rpL14/eL14 (from UniProt P36105), for which the binding result is “binds”. As for rpL15/eL15 (from UniProt P05748), the entry is “binds”; as for “rpL16/uL13 (S. cerevisiae (endogenous in yeast))”, “binds”; as for rpL17/uL22 (from UniProt P05740), “binds”.

For rpL19/eL19 (from UniProt P0CX82 1-189), the binding entry is “binds”. With rpL32/eL32 (from UniProt P38061 1-130), the binding result is “binds”.

Regarding rpL33/eL33 (from UniProt P05744), the binding entry is given as “binds”. As for rpL36/eL36 (from UniProt P05745), the entry is “binds”; as for rpL39/eL39 (from UniProt P04650 1-51), “binds”.

B1: Nug1 (protein, UniProt P40010 1-520)
chain: MRVRKRQSRRTSTKLKEGIKKKASAHRKKEKKMAKKDVTWRSRSKKDPGIPSNFPYKAKILEEIEAKKMKDLEERELAKQQRLEARKAAKEQGVDAMDEDMIEDDENGLAALVESAQQAAAEYEGTPSNDADVRDDELDVIDYNIDFYGEDVEGESELEKSRKAYDKIFKSVIDASDVILYVLDARDPESTRSRKVEEAVLQSQGKRLILILNKVDLIPPHVLEQWLNYLKSSFPTIPLRASSGAVNGTSFNRKLSQTTTASALLESLKTYSNNSNLKRSIVVGVIGYPNVGKSSVINALLARRGGQSKACPVGNEAGVTTSLREIKIDNKLKILDSPGICFPSENKKRSKVEHEAELALLNALPAKHIVDPYPAVLMLVKRLAKSDEMTESFKKLYEIPPIPANDADTFTKHFLIHVARKRGRLGKGGIPNLASAGLSVLNDWRDGKILGWVLPNTSAAASQQDKQNLSTINTGTKQAPIAANESTIVSEWSKEFDLDGLFSSLDKAIDASKDQDTMME
Regarding B1, the binding result is given as “binds”.

B2: Nop7 (protein, UniProt P53261 1-605)
chain: MRIKKKNTRGNARNFITRSQAVRKLQVSLADFRRLCIFKGIYPREPRNKKKANKGSTAPTTFYYAKDIQYLMHEPVLAKFREHKTFARKLTRALGRGEVSSAKRLEENRDSYTLDHIIKERYPSFPDAIRDIDDALNMLFLFSNLPSTNQVSSKIINDAQKICNQWLAYVAKERLVRKVFVSIKGVYYQANIKGEEVRWLVPFKFPENIPSDVDFRIMLTFLEFYSTLLHFVLYKLYTDSGLIYPPKLDLKKDKIISGLSSYILESRQEDSLLKLDPTEIEEDVKVESLDASTLKSALNADEANTDETEKEEEQEKKQEKEQEKEQNEETELDTFEDNNKNKGDILIQPSKYDSPVASLFSAFVFYVSREVPIDILEFLILSCGGNVISEAAMDQIENKKDIDMSKVTHQIVDRPVLKNKVAGRTYIQPQWIFDCINKGELVPANKYLPGEALPPHLSPWGDAIGYDPTAPVEEGEEEESESESESEDQVEEEDQEVVAGEEDDDDDEELQAQKELELEAQGIKYSETSEADKDVNKSKNKKRKVDEEEEEKKLKMIMMSNKQKKLYKKMKYSNAKKEEQAENLKKKKKQIAKQKAKLNKLDSKK
For the molecule B2, the binding entry is on record as “binds”.

B3: Cic1 (protein, UniProt P38779 1-376)
chain: MAKKSNSKKSTPVSTPSKEKKKVIEKKSSTAIPRERVIKAVNELIKFTSKPQDENNEEGNNGKKNLLEDDEEELKKDLQLIVVNNKSFTGTSKSFKLKLLNVKHSFYKPWKEASATAVKDFKVLLILKDSDIKKVSEDDLFDQLDSEGIKVDEIICGKDLKTVYKAYEARNAFISQFSLILADDSIVTSLPKLMGGKAYNKVETTPISIRTHANKEFSLTTLTNNIKKVYMNQLPVKLPRGTTLNVHLGNLEWLRPEEFVDNVELISEQLIKAYQIRSIFIKTNRSPVLPLYYNQDVLDELEAKKDKIEETHEDDMVTIDGVQVHLSTFNKGLMEIANPSELGSIFSKQINNAKKRSSSELEKESSESEAVKKAKS
Regarding B3, the binding entry is “binds”.

B4: Pwp1 (protein, UniProt P21304 1-576)
chain: MISATNWVPRGFSSEFPEKYVLDDEEVERINQLAQLNLDDAKATLEEAEGESGVEDDAATGSSNKLKDQLDIDDDLKEYNLEEYDDEEIADNEGGKDVSMFPGLSNDSDVKFHEGEKGEDPYISLPNQEDSQEEKQELQVYPSDNLVLAARTEDDVSYLDIYVYDDGAGFHSSDIPVEEGDEADPDVARGLVRDPALYVHHDLMLPAFPLCVEWLDYKVGSNSEEAANYAAIGTFDPQIEIWNLDCVDKAFPDMILGEPLDNSMVSLKSKKKKKKSKTGHITTHHTDAVLSMAHNKYFRSVLASTSADHTVKLWDLNSGNAARSLASIHSNKNVSSSEWHMLNGSILLTGGYDSRVALTDVRISDESQMSKYWSAMAGEEIETVTFASENIILCGTDSGNVYSFDIRNNENRKPVWTLKAHDAGISTLCSNKFIPGMMSTGAMGEKTVKLWKFPLDDATNTKGPSMVLSRDFDVGNVLTSSFAPDIEVAGTMVIGGVNKVLKLWDVFTNRSVRKSFKSELENVQARAKEEAQKIGKSSRIARKYTSNDNPDTVITIDDQGEDEEEREGGDEHDDMA
Turning to B4, the binding result is “binds”.

B5: rpL18/eL18 (protein, UniProt P0CX49 1-186)
chain: MGIDHTSKQHKRSGHRTAPKSDNVYLKLLVKLYTFLARRTDAPFNKVVLKALFLSKINRPPVSVSRIARALKQEGAANKTVVVVGTVTDDARIFEFPKTTVAALRFTAGARAKIVKAGGECITLDQLAVRAPKGQNTLILRGPRNSREAVRHFGMGPHKGKAPRILSTGRKFERARGRRRSKGFKV
As to B5, the binding entry was “binds”.

B6: Mak5 (protein, UniProt P38112 1-773)
chain: MGKKRAPQKGKTVTKPQEIIVDESKLNWKPVDIPDTLDDFGGFYGLEEIDGVDVKVVDGKVTFVTKKDSKVLKDSNKEKVGDDQESVENESGSDSESELLEFKNLDDIKEGELSAASYSSSDEDEQGNIESSKLTDPSEDVDEDVDEDVLKENVFNKDINIDDISPVNLPEWTNLAPLSMTILQSLQNLNFLRPTEIQKKSIPVIMQGVDVMGKASTGSGKTLAYGIPIVEKLISNFSQKNKKPISLIFTPTRELAHQVTDHLKKICEPVLAKSQYSILSLTGGLSIQKQQRLLKYDNSGQIVIATPGRFLELLEKDNTLIKRFSKVNTLILDEADRLLQDGHFDEFEKIIKHLLVERRKNRENSEGSSKIWQTLIFSATFSIDLFDKLSSSRQVKDRRFKNNEDELNAVIQHLMSKIHFNSKPVIIDTNPESKVSSQIKESLIECPPLERDLYCYYFLTMFPGTTLIFCNAIDSVKKLTVYLNNLGIPAFQIHSSMTQKNRLKSLERFKQQSAKQKTINHSNPDSVQLSTVLIASDVAARGLDIPGVQHVIHYHLPRSTDIYIHRSGRTARAGSEGVSAMICSPQESMGPLRKLRKTLATKNSVSTDLNSRSTNRKPIKWQNTVPLLPIETDILSQLRERSRLAGELADHEIASNSLRKDDNWLKKAADELGIDVDSDEDDISKSNSDTFLLKNKNKKMQKTINKDKVKAMRATLNELLSVPIRKDRRQKYLTGGLVNLADNLVKKRGHNSIIGHEKTNALETLKKKKKRNN
For the molecule B6, the binding entry is reported as “binds”.

B7: rpL20/eL20 (protein, UniProt P0CX23 1-172)
chain: MAHFKEYQVIGRRLPTESVPEPKLFRMRIFASNEVIAKSRYWYFLQKLHKVKKASGEIVSINQINEAHPTKVKNFGVWVRYDSRSGTHNMYKEIRDVSRVAAVETLYQDMAARHRARFRSIHILKVAEIEKTADVKRQYVKQFLTKDLKFPLPHRVQKSTKTFSYKRPSTFY
Take B7: the binding entry is given as “binds”.

B8: Rrp17 (protein, UniProt Q04031 1-235)
chain: MAVHTNRQILTRGKNYATKQSKKFGTDEVTFDKDSRLDYLTGFHKRKLQRQKKAQEFIKEQERLRKIEERQKIRQERKEVMEEQLKTFKESLNLEAEIEDAKNDKTEDLQVESDESWHGFDSDKDDGDNDNNESSVKPILKKGAITEIYDDSTTVELETLEPNDNFEYLAQLNNVKLEKAEKVLKQSINRATKYAKFLGVDEKQKKKPRVKKFRYLTKNERRINQRKANDNKRRR
For B8, the binding result is listed as “binds”.

B9: Rpf1 (protein, UniProt P38805 1-295)
chain: MALGNEINITNKLKRQEIFADIKHEKNKERHTMRRKRAKEERENPELREQRLKENVTQTIENTRVYDETINKEVEGDEDDLMRYFNSNSNEPPKIFLTTNVNAKKSAYEFANILIEILPNVTFVKRKFGYKLKEISDICIKRNFTDIVIINEDKKKVTGLTFIHLPEGPTFYFKLSSFVEVKKIVGHGRPTSHIPELILNNFQTRLGQTVGRLFQSILPQNPDIEGRQVITLHNQRDYIFFRRHRYVFKDNERVGLQELGPQFTLKLKRLQRGIKEETEWEHKPEMDKEKKKFYL
Regarding B9, the binding entry is “binds”.

B10: Rlp7 (protein, UniProt P40693 1-322)
chain: MSSTQDSKAQTLNSNPEILLRKRRNADRTRIERQELAKKKREEQIKKKRSNKNKFVRAESIVAKTLATSREKERIKRVSILEDKKAKNETQHIASGKDFILKITEKANGAEENSVDLEETEEEEDDGLIREKTTYDGKPALLFIVRVRGPLAVNIPNKAFKILSLLRLVETNTGVFVKLTKNVYPLLKVIAPYVVIGKPSLSSIRSLIQKRGRIIYKGENEAEPHEIVLNDNNIVEEQLGDHGIICVEDIIHEIATMGESFSVCNFFLQPFKLNREVSGFGSLNRLRKIKQREAESRTRQFSNAATAPVIEVDIDSLLAKLN
As to B10, the binding result is recorded as “binds”.
